The supplement of paper PMC4604168 (melanoma cell lines)
The list shows a part of the results. Many values rest on one well or one pass, so single values are uncertain.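 Cells were imaged in 1,536-well plates, and nuclei stained with an antibody against cleaved PARP were counted against all DNA-stained nuclei to give the apoptosis fraction. Screening doses were chosen to leave most cells alive, and resting and induced cleaved-PARP levels differ strongly between cell lines.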

Tests used:
Experiment in all cases: cleaved PARP positive nuclei fraction relative to DMSO control; melanoma cells; higher = more apoptosis
Settings in all cases: library dose: low library concentration; 72 h
[1] = tested on: WM115
[2] = tested on: WM1716
[3] = tested on: WM1745
[4] = tested on: WM3526
[5] = tested on: WM3619
[6] = tested on: WM451Lu

Row | SMILES | cleaved PARP positive nuclei fraction [1] | cleaved PARP positive nuclei fraction [2] | cleaved PARP positive nuclei fraction [3] | cleaved PARP positive nuclei fraction [4] | cleaved PARP positive nuclei fraction [5] | cleaved PARP positive nuclei fraction [6]
1 | COc1ccc(C2=N[C@@H](c3ccc(Cl)cc3)[C@@H](c3ccc(Cl)cc3)N2C(=O)N2CCNC(=O)C2)c(OC(C)C)c1 [Nutlin-3] + Nc1ncn([C@H]2C[C@H](O)[C@@H](CO)O2)c(=O)n1 [decitabine] (first compound 0.1 µM, partner dose 0.1 µM) | 167% | 166% | 105% | 70.5% | 110% | 37.3%
2 | COc1ccc(C2=N[C@@H](c3ccc(Cl)cc3)[C@@H](c3ccc(Cl)cc3)N2C(=O)N2CCNC(=O)C2)c(OC(C)C)c1 [Nutlin-3] + O=C(O)c1ccc2c(c1)nc(Nc1cccc(Cl)c1)c1ccncc12 [CX4945] (first compound 0.1 µM, partner dose 0.4 µM) | 81.7% | 44.9% | 110% | 48% | 90.7% | 89.1%
3 | Cn1sc(=O)n(Cc2ccccc2)c1=O + CCc1ccc(CCOc2ccc(CC3SC(=O)NC3=O)cc2)nc1 [pioglitazone] (first compound 0.4 µM, partner dose 2 µM) | 53% | 101% | 103% | 157% | 108% | 164%
4 | NC1(c2ccc(-c3nc4ccn5c(=O)[nH]nc5c4cc3-c3ccccc3)cc2)CCC1 + OCCn1cc(-c2cnc3nnn(Cc4ccc5ncccc5c4)c3n2)cn1 [PF04217903] (first compound 0.4 µM, partner dose 1 µM) | 232% | 145% | 94.1% | 359% | 99.9% | 24.9%
5 | CN(c1ncccc1CNc1nc(Nc2ccc3c(c2)CC(=O)N3)ncc1C(F)(F)F)S(C)(=O)=O + C[C@]1(c2nc3c(C(N)=O)cccc3[nH]2)CCCN1 [Veliparib] (first compound 0.08 µM, partner dose 1.4 µM) | 201% | 56.9% | 112% | 42.4% | 87.9% | 118%
6 | CS(=O)(=O)c1ccc(C(=O)Nc2ccc(Cl)c(-c3ccccn3)c2)c(Cl)c1 [vismodegib] + COc1cc2ncnc(Nc3ccc(Oc4ccccc4)cc3)c2cc1OC [SrcI1] (first compound 1 µM, partner dose 2 µM) | 152% | 43.1% | 91.8% | 73% | 101% | 65%
7 | CN(c1ncccc1CNc1nc(Nc2ccc3c(c2)CC(=O)N3)ncc1C(F)(F)F)S(C)(=O)=O + C=CCNC1=C2C[C@@H](C)C[C@H](OC)[C@H](O)[C@@H](C)/C=C(\C)[C@H](OC(N)=O)[C@@H](OC)/C=C\C=C(/C)C(=O)NC(=CC1=O)C2=O [Tanespimycin] (first compound 0.08 µM, partner dose 0.002 µM) | 193% | 81% | 110% | 36.3% | 94.4% | 104%
8 | CCCCCCCCc1ccc(CCC(N)(CO)CO)cc1 [fingolimod] + CNC(=O)c1cc(Oc2ccc(NC(=O)Nc3ccc(Cl)c(C(F)(F)F)c3)cc2)ccn1 [sorafenib] (first compound 2 µM, partner dose 0.4 µM) | 76.1% | 191% | 120% | 51% | 82.5% | 169%
9 | NC1(c2ccc(-c3nc4ccn5c(=O)[nH]nc5c4cc3-c3ccccc3)cc2)CCC1 + Cn1c(=O)n(-c2ccc(C(C)(C)C#N)cc2)c2c3cc(-c4cnc5ccccc5c4)ccc3ncc21 [NVP-BEZ235] (first compound 0.4 µM, partner dose 0.004 µM) | 391% | 123% | 97.4% | 124% | 130% | 208%
10 | COc1ccc(C2=N[C@@H](c3ccc(Cl)cc3)[C@@H](c3ccc(Cl)cc3)N2C(=O)N2CCNC(=O)C2)c(OC(C)C)c1 [Nutlin-3] + Cc1nc(Nc2ncc(C(=O)Nc3c(C)cccc3Cl)s2)cc(N2CCN(CCO)CC2)n1 [dasatanib] (first compound 0.1 µM, partner dose 0.004 µM) | 203% | 121% | 147% | 84.6% | 109% | 22.5%
11 | NC1(c2ccc(-c3nc4ccn5c(=O)[nH]nc5c4cc3-c3ccccc3)cc2)CCC1 + C[C@@H](Oc1cc(-c2cnn(C3CCNCC3)c2)cnc1N)c1c(Cl)ccc(F)c1Cl [Crizotinib] (first compound 0.4 µM, partner dose 0.2 µM) | 162% | 155% | 111% | 142% | 91.2% | 97.3%
12 | CS(=O)(=O)c1ccc(C(=O)Nc2ccc(Cl)c(-c3ccccn3)c2)c(Cl)c1 [vismodegib] + CC(=O)c1c(C)c2cnc(Nc3ccc(N4CCNCC4)cn3)nc2n(C2CCCC2)c1=O [palbociclib] (first compound 1 µM, partner dose 0.04 µM) | 104% | 79.5% | 106% | 66.8% | 84.2% | 39.9%
13 | NC(=O)c1ccc(N(C(N)=O)c2c(F)cccc2F)nc1-c1ccc(F)cc1F + COC(=O)c1sccc1S(=O)(=O)Nc1ccc(Nc2ccccc2)cc1OC [GSK0660] (first compound 0.4 µM, partner dose 1 µM) | 60.5% | 89.6% | 92.8% | 80.5% | 80.8% | 101%
14 | CCN(CC)CCNC(=O)c1c(C)[nH]c(/C=C2\C(=O)Nc3ccc(F)cc32)c1C [sunitinib] + CCc1ccc(CCOc2ccc(CC3SC(=O)NC3=O)cc2)nc1 [pioglitazone] (first compound 0.4 µM, partner dose 2 µM) | 104% | 72.9% | 103% | 248% | 60.3% | 67.5%
15 | C[C@]1(O)C[C@@H](c2nc(-c3ccc4ccc(-c5ccccc5)nc4c3)c3c(N)nccn32)C1 + C[C@]1(c2nc3c(C(N)=O)cccc3[nH]2)CCCN1 [Veliparib] (first compound 0.4 µM, partner dose 1.4 µM) | 107% | 34.6% | 115% | 41.9% | 109% | 86.1%
16 | CC(=O)O[C@@]12CO[C@@H]1C[C@H](O)[C@@]1(C)C(=O)[C@H](O)C3=C(C)[C@@H](OC(=O)[C@H](O)[C@@H](NC(=O)OC(C)(C)C)c4ccccc4)C[C@@](O)([C@@H](OC(=O)c4ccccc4)[C@H]21)C3(C)C [Docetaxel] + Cc1nc(Nc2ncc(C(=O)Nc3c(C)cccc3Cl)s2)cc(N2CCN(CCO)CC2)n1 [dasatanib] (first compound 0.0001 µM, partner dose 0.004 µM) | 436% | 213% | 228% | 176% | 137% | 94.2%
17 | CCCCCCCCc1ccc(CCC(N)(CO)CO)cc1 [fingolimod] + CC(C)(C)c1cnc(CSc2cnc(NC(=O)C3CCNCC3)s2)o1 [SNS-032] (first compound 2 µM, partner dose 0.01 µM) | 178% | 74.1% | 102% | 114% | 93.8% | 105%
18 | Cn1cnc2c(F)c(Nc3ccc(Br)cc3Cl)c(C(=O)NOCCO)cc21 [selumetinib] + CC(C)CCN1c2nc(Nc3cc(F)c(O)c(F)c3)ncc2N(C)C(=O)C1C [BID1870] (first compound 0.015 µM, partner dose 0.2 µM) | 99.6% | 113% | 107% | 80.7% | 140% | 73.9%
19 | CC(=O)O[C@@]12CO[C@@H]1C[C@H](O)[C@@]1(C)C(=O)[C@H](O)C3=C(C)[C@@H](OC(=O)[C@H](O)[C@@H](NC(=O)OC(C)(C)C)c4ccccc4)C[C@@](O)([C@@H](OC(=O)c4ccccc4)[C@H]21)C3(C)C [Docetaxel] + Cn1cc(/C=C2\C(=O)Nc3cccnc32)c2ccccc21 [GW441756] (first compound 0.0001 µM, partner dose 0.4 µM) | 225% | 447% | 3490% | 195% | 134% | 273%
20 | CC(=O)O[C@@]12CO[C@@H]1C[C@H](O)[C@@]1(C)C(=O)[C@H](O)C3=C(C)[C@@H](OC(=O)[C@H](O)[C@@H](NC(=O)OC(C)(C)C)c4ccccc4)C[C@@](O)([C@@H](OC(=O)c4ccccc4)[C@H]21)C3(C)C [Docetaxel] + Oc1nc(-c2ccc(C(F)(F)F)cc2)nc2c1CSCC2 [XAV939] (first compound 0.0001 µM, partner dose 2 µM) | 204% | 2930% | 267% | 194% | 113% | 71.4%
21 | CCN(CC)CCNC(=O)c1c(C)[nH]c(/C=C2\C(=O)Nc3ccc(F)cc32)c1C [sunitinib] + COC(=O)c1sccc1S(=O)(=O)Nc1ccc(Nc2ccccc2)cc1OC [GSK0660] (first compound 0.4 µM, partner dose 1 µM) | 68.7% | 39% | 106% | 79.2% | 65% | 36%
22 | CS(=O)(=O)c1ccc(C(=O)Nc2ccc(Cl)c(-c3ccccn3)c2)c(Cl)c1 [vismodegib] + COc1cc(N2CCC(N3CCN(C)CC3)CC2)ccc1Nc1ncc(Cl)c(Nc2ccccc2S(=O)(=O)C(C)C)n1 [NVP-TAE684] (first compound 1 µM, partner dose 0.08 µM) | 332% | 377% | 104% | 69.5% | 93.9% | 160%
23 | CCN(CC)CCNC(=O)c1c(C)[nH]c(/C=C2\C(=O)Nc3ccc(F)cc32)c1C [sunitinib] + c1cc(-c2cnn3cc(-c4ccc(OCCN5CCCCC5)cc4)cnc23)ccn1 [Dorsomorphin] (first compound 0.4 µM, partner dose 0.4 µM) | 178% | 61.5% | 148% | 76.8% | 76.2% | 198%

Record cards, from the list above. Order of values: cleaved PARP positive nuclei fraction [1] | cleaved PARP positive nuclei fraction [2] | cleaved PARP positive nuclei fraction [3] | cleaved PARP positive nuclei fraction [4] | cleaved PARP positive nuclei fraction [5] | cleaved PARP positive nuclei fraction [6]
CN(c1ncccc1CNc1nc(Nc2ccc3c(c2)CC(=O)N3)ncc1C(F)(F)F)S(C)(=O)=O + C[C@]1(c2nc3c(C(N)=O)cccc3[nH]2)CCCN1 [Veliparib] (first compound 0.08 µM, partner dose 1.4 µM) is listed with 201% | 56.9% | 112% | 42.4% | 87.9% | 118%
CC(=O)O[C@@]12CO[C@@H]1C[C@H](O)[C@@]1(C)C(=O)[C@H](O)C3=C(C)[C@@H](OC(=O)[C@H](O)[C@@H](NC(=O)OC(C)(C)C)c4ccccc4)C[C@@](O)([C@@H](OC(=O)c4ccccc4)[C@H]21)C3(C)C [Docetaxel] + Cc1nc(Nc2ncc(C(=O)Nc3c(C)cccc3Cl)s2)cc(N2CCN(CCO)CC2)n1 [dasatanib] (first compound 0.0001 µM, partner dose 0.004 µM) is listed with 436% | 213% | 228% | 176% | 137% | 94.2%
